{"source": "patent US20230018242A1", "binders": {"B1": {"name": "pre-S1 monoclonal antibody (antibody, V domains shown)", "VH": "DVQLQESGPGLVKPSQSLSLTCTVTGYSITSDYAWNWIRQFPGNKLEWMGYIRYSGTTNYNPSLKSRISITRDTSKNQFFLQLNSVTTEDTATYYCARGGTGLTYWGQGTLVTVSA", "VL": "NIVMTQSPKSMSMSLGERVTLTCKASENVGTYVSWYQQKPEQSPKLLIYGASNRNTGVPDRFTGSGPATDFTLTISSVQAEDLADYLCGQTYNYPFTFGAGTKLELK"}}, "target": "pre-S1 peptide containing amino acid 25-38 (…) (hepatitis B virus)", "assay": "relative affinities of synthetic pre-S1 oligopeptides to the antibody", "note": "No constants are given. Whether binding was seen depends on the method and setting. Some entries that bind do so weakly or less than the wild type.", "data": [{"binder": "B1", "values": [{"measurement": "binding", "value": "binds"}]}]}
